Assay results: article PMC7819943, “Rice protein-binding microarrays: a tool to detect cis-acting elements near promoter regions in rice”
Some of the results follow.

Sequences of proteins named here, by UniProt entry; tags and fusion partners are left off.
UniProt Q0JBA9, entry or part of it: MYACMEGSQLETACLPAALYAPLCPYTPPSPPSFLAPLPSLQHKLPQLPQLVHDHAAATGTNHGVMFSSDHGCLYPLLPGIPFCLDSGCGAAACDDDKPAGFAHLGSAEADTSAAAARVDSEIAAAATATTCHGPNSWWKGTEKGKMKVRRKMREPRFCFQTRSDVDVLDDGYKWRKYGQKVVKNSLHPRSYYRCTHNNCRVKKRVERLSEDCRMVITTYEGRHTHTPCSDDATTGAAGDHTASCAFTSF

Biological target: OsWRKY34 (Oryza sativa, UniProt Q0JBA9 1-250)
Experiment: protein-binding microarray (RPBM); PBS, 2% BSA, 51.3 ng/ul salmon testes DNA, 50 uM zinc acetate, 200 nM TF, 25 C, 1 h; high values mean tight binding
Conditions: protein: recombinant; tags: N-terminal polyhistidine and DsRed monomer fusion (pET32a); label: CyDye5-dUTP incorporated in the synthesized complementary strand; 3' TTTTT single-stranded linker to array surface; dsDNA, one strand shown
Outline: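 Transcription factors, each fused N-terminally to a polyhistidine tag and DsRed, were expressed in E. coli BL21-CodonPlus and purified on Ni–NTA. A custom Agilent array was made double-stranded by primer extension with Cy5-dUTP and blocked with 2% BSA. It was incubated with 200 nM protein in PBS, 2% BSA, salmon testes DNA and 50 µM zinc acetate at 25 °C for 1 h, then washed. The binding signal is per-feature fluorescence intensity (arbitrary units) read on an Axon 4000B scanner.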

Row | Sequence | binding signal
1 | GTTTTTCGTGGCAGTCATACCTATTGATTTCTGCTGCTACCGGAGTCACCTAGTGCAG | 9590 fluorescence intensity (a.u.)
2 | TTCGTCGTAAGCCCTCGCGCCTGTAGTATTGCCTGGACACCGGAGTCACCTAGTGCAG | 8350 fluorescence intensity (a.u.)
3 | CAGTACTTTTTCTCATAATTGTTTCGTCGCTGGTTAGCACCGGAGTCACCTAGTGCAG | 9060 fluorescence intensity (a.u.)
4 | AAGTCGAGGTCAAAGGTCAATGTCCGTGGTCTCTTTTTATCGGAGTCACCTAGTGCAG | 8120 fluorescence intensity (a.u.)
5 | GGTTTGTACAACAATAATATAGAGCGGGGTTTTCTCTTGTCGGAGTCACCTAGTGCAG | 8420 fluorescence intensity (a.u.)
6 | TAATGGTTTACATTTTTTTACGTACTTCTAAATCTTTTCCCGGAGTCACCTAGTGCAG | 8790 fluorescence intensity (a.u.)
7 | AATATGTTATCACCGCAGATAGTTCTTCTATGTTTAGCATCGGAGTCACCTAGTGCAG | 8260 fluorescence intensity (a.u.)
8 | AATCTTCTTTCTGCCAGGCTGACAATTTGCGGCAGCAGACCGGAGTCACCTAGTGCAG | 9050 fluorescence intensity (a.u.)
9 | CAGAGGTACCATTTCTATTTTCTCCTTGTGTCCATTAATCCGGAGTCACCTAGTGCAG | 8340 fluorescence intensity (a.u.)
10 | TTGCCCTTACAATCATGCATCCATACCAAAATACTTTTACCGGAGTCACCTAGTGCAG | 8490 fluorescence intensity (a.u.)
11 | AGAATTTCTTACTCTGCTTTTATTCCCGTGCCAGTGCTCTCGGAGTCACCTAGTGCAG | 10900 fluorescence intensity (a.u.)
12 | GCAGTCCAACCATCACCTCAACCGGTCAACATGGATTCTCCGGAGTCACCTAGTGCAG | 9540 fluorescence intensity (a.u.)
13 | GCTTAATTTTGTGTTCGTGTGCATGGATTTTGTGTTTCGTCGGAGTCACCTAGTGCAG | 8720 fluorescence intensity (a.u.)
14 | CCACACACTTGAAACTCGCAGATTCCTGCCTTGATTAGCACGGAGTCACCTAGTGCAG | 8580 fluorescence intensity (a.u.)
15 | AAATATATTACATCTATTGTTCCTATCTATTCCTACGTTGCGGAGTCACCTAGTGCAG | 9130 fluorescence intensity (a.u.)
16 | GTGGTCCGGTGGTGGGGTGATGGGGCGTGGCGGTTCTGTCCGGAGTCACCTAGTGCAG | 15400 fluorescence intensity (a.u.)
17 | ACACGGTCTCCAAAACACAACTTTGACTTCTTGTTTCATTCGGAGTCACCTAGTGCAG | 12700 fluorescence intensity (a.u.)
18 | TCCTTTTGCCCGCACCATCACCACCACCACCGCCTCCAGACGGAGTCACCTAGTGCAG | 12300 fluorescence intensity (a.u.)
19 | TCGTCCCCATCCAACCGTGCGTGCGTGCCGCCCGCGCGCGCGGAGTCACCTAGTGCAG | 12200 fluorescence intensity (a.u.)
20 | CGAGCCTCCACGCCTCGAGCACCCTCCTCGCGCCGCCGCTCGGAGTCACCTAGTGCAG | 8520 fluorescence intensity (a.u.)
21 | GACACCACATAAAGACACCCATCCCCGTGATCAACTACCTCGGAGTCACCTAGTGCAG | 8320 fluorescence intensity (a.u.)
22 | CCCCAGCTGTTTGCCTTTCCTGCCTGCGGGGACGTTTTACCGGAGTCACCTAGTGCAG | 8330 fluorescence intensity (a.u.)
23 | TCTCGCGATTTACATGCAAACTGTACAATTAGTTTTTCTTCGGAGTCACCTAGTGCAG | 8370 fluorescence intensity (a.u.)

2 entries picked at random from the list so far, as already listed:
Row | Sequence | binding signal
5 | GGTTTGTACAACAATAATATAGAGCGGGGTTTTCTCTTGTCGGAGTCACCTAGTGCAG | 8420 fluorescence intensity (a.u.)
10 | TTGCCCTTACAATCATGCATCCATACCAAAATACTTTTACCGGAGTCACCTAGTGCAG | 8490 fluorescence intensity (a.u.)
